PubChem BioAssay AID1259306 | Sanger Institute – 2017
Assay: 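Find kinases whose loss reduces colorectal cancer cell viability or aids targeted drugs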 (primary screen). Cell system: human SNU-C5 colorectal cancer cells. Reagents: siRNA pool against human genes. Conditions: DMSO vehicle alone, or one anchor drug: BYL719 at 1 µM, cetuximab at 5 µg/ml or trametinib at 10 nM, given 24 h into the assay. Measured: 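Replicate-averaged viability against non-targeting pool control, given as fraction and robust z-score; separate synergy scores for BYL719, cetuximab and trametinib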. Direction: robust z-score, knock-down alone: higher = more viable cells. Rule for the call: 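Called essential when the robust z-score for knock-down alone is below -3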. Meaning of the calls: active = essential (knock-down alone); inactive = no change alone.
Here is an unselected part of 794 reagents tested. 11 of them (1.4%) were called active. 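Calls reflect knock-down alone; synergy scores play no part, so knock-downs synergising with a drug can be called no change.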 Not all columns of the deposit are shown. Reagent sequences are not shown. Not given: the amount of reagent, the time to read-out.

The opening 3 entries, to show the layout:
{"Target gene": "BRD4", "robust z-score, knock-down alone": -0.444, "Call": "inactive"}
{"Target gene": "MOS", "robust z-score, knock-down alone": 0.369, "Call": "inactive"}
{"Target gene": "SMC1A", "robust z-score, knock-down alone": -0.305, "Call": "inactive"}

Main list, from the start:
{"Target gene": "BRD4", "robust z-score, knock-down alone": -0.444, "Call": "inactive"}
{"Target gene": "MOS", "robust z-score, knock-down alone": 0.369, "Call": "inactive"}
{"Target gene": "SMC1A", "robust z-score, knock-down alone": -0.305, "Call": "inactive"}
{"Target gene": "JAK1", "robust z-score, knock-down alone": -0.461, "Call": "inactive"}
{"Target gene": "PRKAG1", "robust z-score, knock-down alone": 0.529, "Call": "inactive"}
{"Target gene": "PANK4", "robust z-score, knock-down alone": -1.41, "Call": "inactive"}
{"Target gene": "NME6", "robust z-score, knock-down alone": -2.36, "Call": "inactive"}
{"Target gene": "PRAG1", "robust z-score, knock-down alone": -0.762, "Call": "inactive"}
{"Target gene": "PAK3", "robust z-score, knock-down alone": -0.776, "Call": "inactive"}
{"Target gene": "SLK", "robust z-score, knock-down alone": 0.439, "Call": "inactive"}
{"Target gene": "PAK4", "robust z-score, knock-down alone": 0.989, "Call": "inactive"}
{"Target gene": "EPHA3", "robust z-score, knock-down alone": -0.288, "Call": "inactive"}
{"Target gene": "ROCK2", "robust z-score, knock-down alone": -1.84, "Call": "inactive"}
{"Target gene": "STRADA", "robust z-score, knock-down alone": -0.483, "Call": "inactive"}
{"Target gene": "LMTK3", "robust z-score, knock-down alone": -0.867, "Call": "inactive"}
{"Target gene": "PTK2B", "robust z-score, knock-down alone": 0.989, "Call": "inactive"}
{"Target gene": "MAPK10", "robust z-score, knock-down alone": 0.989, "Call": "inactive"}
{"Target gene": "CTCF", "robust z-score, knock-down alone": -1.73, "Call": "inactive"}
{"Target gene": "ZAP70", "robust z-score, knock-down alone": -0.457, "Call": "inactive"}
{"Target gene": "CERK", "robust z-score, knock-down alone": -0.564, "Call": "inactive"}
{"Target gene": "RPS6KA1", "robust z-score, knock-down alone": 0.381, "Call": "inactive"}
{"Target gene": "SHPK", "robust z-score, knock-down alone": 0.982, "Call": "inactive"}
{"Target gene": "EPHB4", "robust z-score, knock-down alone": -0.341, "Call": "inactive"}
{"Target gene": "STYK1", "robust z-score, knock-down alone": -0.666, "Call": "inactive"}
{"Target gene": "MKNK2", "robust z-score, knock-down alone": -0.321, "Call": "inactive"}
{"Target gene": "NTRK2", "robust z-score, knock-down alone": -0.568, "Call": "inactive"}
{"Target gene": "MAST1", "robust z-score, knock-down alone": 0.989, "Call": "inactive"}
{"Target gene": "TRIB3", "robust z-score, knock-down alone": -1.33, "Call": "inactive"}
{"Target gene": "APC", "robust z-score, knock-down alone": -1.59, "Call": "inactive"}
{"Target gene": "CAMK2B", "robust z-score, knock-down alone": 0.843, "Call": "inactive"}
{"Target gene": "TEC", "robust z-score, knock-down alone": 0.331, "Call": "inactive"}
{"Target gene": "MYLK2", "robust z-score, knock-down alone": -3.96, "Call": "active"}
{"Target gene": "PAK2", "robust z-score, knock-down alone": -0.337, "Call": "inactive"}
{"Target gene": "AURKA", "robust z-score, knock-down alone": -2.22, "Call": "inactive"}
{"Target gene": "SMG1", "robust z-score, knock-down alone": -1.59, "Call": "inactive"}
{"Target gene": "HIPK4", "robust z-score, knock-down alone": 0.989, "Call": "inactive"}
